Results deposited as PubChem BioAssay AID1053208 (Peter MacCallum Cancer Centre, 2014).
The whole screen tested about 17,000 reagents; this is a part drawn at random. 788 of them (4.7%) count as active. 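Calls rest on z-score classes alone; an extra cut-off of viability at most 70% of control was not applied to them.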 Further read-outs or replicates are left out here.

- Assay: 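Synthetic lethal interactions between gene loss and doxorubicin in osteosarcoma cells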 (primary screen)
- Cell system: mouse osteosarcoma cells, early-passage culture from an engineered mouse model of fibroblastic bone tumour
- Reagents: siRNA pool against mouse genes, 40 nM
- Timing: about 120 h (48 h before drug, then 72 h with drug)
- Challenge: doxorubicin 100 nM for 72 h, roughly 30-40% inhibitory dose
- Read-out: 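Viability read as ATP luminescence after 72 h of 100 nM doxorubicin or none, duplicate wells averaged, scaled to non-targeting siRNA, then expressed as robust z-scores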
- Direction: viability z-score with doxorubicin: higher = more viable cells under doxorubicin; viability z-score without drug: higher = more viable cells with knock-down alone
- Call rule: 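a pool counts as active when its viability z-score with doxorubicin is -2 or below and its z-score without drug lies between -2 and 2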

H2-M10.4 → combined z-score class = no change with or without drug; viability z-score with doxorubicin = 0.22; viability z-score without drug = 0.17; Outcome = inactive
Asic1 → combined z-score class = no change with or without drug; viability z-score with doxorubicin = -0.22; viability z-score without drug = -0.51; Outcome = inactive
Cacna1h → combined z-score class = no change with or without drug; viability z-score with doxorubicin = 0.9; viability z-score without drug = -1.18; Outcome = inactive
Phlpp1 → combined z-score class = no change with or without drug; viability z-score with doxorubicin = 0.11; viability z-score without drug = -0.17; Outcome = inactive
Bag3 → combined z-score class = no change with or without drug; viability z-score with doxorubicin = 0.11; viability z-score without drug = 0.84; Outcome = inactive
Nudt22 → combined z-score class = high cell count with and without drug; viability z-score with doxorubicin = 2.81; viability z-score without drug = 2.02; Outcome = inactive
Zfp933 → combined z-score class = no change with or without drug; viability z-score with doxorubicin = -0.22; viability z-score without drug = 1.52; Outcome = inactive
Map4 → combined z-score class = no change with or without drug; viability z-score with doxorubicin = 0.34; viability z-score without drug = -0.51; Outcome = inactive
Idh2 → combined z-score class = no change with or without drug; viability z-score with doxorubicin = -1.8; viability z-score without drug = -0.84; Outcome = inactive
C5ar1 → combined z-score class = no change with or without drug; viability z-score with doxorubicin = -0.56; viability z-score without drug = 0.51; Outcome = inactive
Ndufs5-ps → combined z-score class = no change with or without drug; viability z-score with doxorubicin = 0.9; viability z-score without drug = -0.84; Outcome = inactive
Itsn2 → combined z-score class = no change with or without drug; viability z-score with doxorubicin = -0.22; viability z-score without drug = -0.34; Outcome = inactive
Clec11a → combined z-score class = no change with or without drug; viability z-score with doxorubicin = 0; viability z-score without drug = -0.34; Outcome = inactive
Casp7 → combined z-score class = no change with or without drug; viability z-score with doxorubicin = 1.91; viability z-score without drug = 1.01; Outcome = inactive
Mrap → combined z-score class = no change with or without drug; viability z-score with doxorubicin = -1.35; viability z-score without drug = 1.18; Outcome = inactive
Tex56 → combined z-score class = high cell count without drug only; viability z-score with doxorubicin = 0.67; viability z-score without drug = 2.19; Outcome = inactive
Impa1 → combined z-score class = no change with or without drug; viability z-score with doxorubicin = -0.79; viability z-score without drug = 0.51; Outcome = inactive
Zfp526 → combined z-score class = high cell count without drug only; viability z-score with doxorubicin = 1.12; viability z-score without drug = 2.53; Outcome = inactive
Ambn → combined z-score class = no change with or without drug; viability z-score with doxorubicin = -0.67; viability z-score without drug = -1.52; Outcome = inactive

2 consecutive entries from above, quoted:
Zfp933 → combined z-score class = no change with or without drug; viability z-score with doxorubicin = -0.22; viability z-score without drug = 1.52; Outcome = inactive
Map4 → combined z-score class = no change with or without drug; viability z-score with doxorubicin = 0.34; viability z-score without drug = -0.51; Outcome = inactive
